# Measurements taken from the supplement of paper PMC3334620.
# In all, about 33,000 sequences were measured (“E-score (-0.5 to 0.5)”: median about -0.0014, highest 2% from about 0.25 on). This is one part of the list.
# Biological target: T1, Cad1 (UniProt P24813)
# T1 sequence: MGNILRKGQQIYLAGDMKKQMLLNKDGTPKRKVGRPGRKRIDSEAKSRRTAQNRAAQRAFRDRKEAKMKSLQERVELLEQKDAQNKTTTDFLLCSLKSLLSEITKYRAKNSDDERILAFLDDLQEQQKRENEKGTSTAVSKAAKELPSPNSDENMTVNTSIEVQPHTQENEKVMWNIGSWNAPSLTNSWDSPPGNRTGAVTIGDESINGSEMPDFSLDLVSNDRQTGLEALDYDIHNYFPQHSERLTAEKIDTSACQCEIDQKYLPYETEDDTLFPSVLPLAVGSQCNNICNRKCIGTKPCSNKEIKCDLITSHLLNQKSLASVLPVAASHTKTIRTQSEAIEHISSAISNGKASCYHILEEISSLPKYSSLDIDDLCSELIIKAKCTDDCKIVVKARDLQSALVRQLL
# Test: PBM E-score (8-mer binding enrichment) (E-score (-0.5 to 0.5)); higher = stronger / more preferred TF binding
# Details: protein concentration: 100 nM; construct: GST-full length
# Procedure: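 Universal 'all 10-mer' protein binding microarrays (Agilent AMADID 015681) probed with GST-tagged S. cerevisiae TFs (full-length or DBD) made by in vitro transcription/translation (PURExpress), about 100-200 nM. Bound TF was detected with fluorescent anti-GST. Each ungapped 8-mer (which stands for itself and its reverse complement) is scored by the PBM enrichment score (E-score), a modified Wilcoxon-Mann-Whitney statistic from -0.5 to +0.5, computed with the Universal PBM Analysis Suite. Scale: above 0.35 generally sequence-specific binding.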
row,Sequence,PBM E-score
1,CCAGAAGC,-0.248
2,TAATCTAA,0.0157
3,GATACGGC,0.014
4,CTAATACA,0.166
5,AAATAACA,0.0616
6,GCACACGC,-0.0434
7,CCATCAAA,0.155
8,CAGATCAA,-0.0742
9,GCCAAGCA,-0.00197
10,ATAGCCCC,-0.373
11,ACGTCAGA,0.0312
12,CGGTGAAG,-0.114
13,AAGCCTTC,-0.251
14,CTGGACTC,-0.0752
15,GTATCATA,0.288
16,ATAGCATG,-0.181
17,GGATAAAA,0.164
18,AGACACAC,0.0545
19,CACGACAC,0.0261
20,CCACAAGA,-0.0947
21,CCGGCGGC,-0.13
22,AGGTGCGC,-0.00349
23,CGAACCCC,-0.191
24,ATGTTGTC,0.143
25,GCGACAAC,0.0879

row,Sequence,PBM E-score
1,AAGTAACC,0.057
2,GAATTCTA,0.191
3,GTACTCCA,-0.162
4,GAAGTTCC,-0.0702
5,CCAACGAA,0.135
6,CTGAACCC,-0.106
7,ATCGTATG,0.0145
8,CTATAAAA,0.0651
9,TAGACCGA,-0.0576
10,CCTCATTC,-0.0493
11,GCCTAATA,-0.00031
12,ATGCGTCA,0.115
13,TCCAGCGA,0.0183
14,AACAACTA,-0.0131
15,CACGGGCC,-0.223
16,GCTAGCCA,-0.183
17,CACGACTA,-0.148
18,CTCTATGC,-0.0435
19,GTTACCGA,-0.0191
20,TAGAACAA,0.0732
21,CGAGGAGC,-0.163
22,GCAACTAC,0.0469
23,CACAAACG,0.0911
24,CCGTGGAC,-0.189
25,CGGATTAA,0.133

row,Sequence,PBM E-score
1,CGCGTATA,-0.0201
2,GTCCGAAC,0.0452
3,AGGGGCAC,-0.146
4,CACTAGAA,-0.0573
5,CGAATTTC,0.17
6,CACCTCCG,-0.0133
7,ATCTAGCG,0.067
8,CCTTTGGC,-0.197
9,AGTGGACA,0.172
10,CGGGATAA,0.119
11,AGTTCAGG,-0.0196
12,CCACCGTA,0.0243
13,GAAGGCTC,-0.171
14,CTGACGCA,0.0845
15,AGGCTCTC,-0.153
16,CCCTAGTC,-0.219
17,AACTTATA,0.257
18,ATCAGCGG,0.0735
19,CAGCACGG,0.147
20,ACGAGTAG,-0.0551
21,CACATGAA,0.00698
22,ATAAGAAC,0.205
23,CTAAGAAC,0.076
24,TCTTCGAA,-0.00633
25,ATACCAAT,0.0289

# Four entries from above, as tab-separated lines:
row	Sequence	PBM E-score
1	CGCGTATA	-0.0201
6	CACCTCCG	-0.0133
11	AGTTCAGG	-0.0196
22	ATAAGAAC	0.205

# The list continues.

row,Sequence,PBM E-score
1,AATTTGCC,0.103
2,CTTCGACC,-0.0865
3,TATTCTCA,0.121
4,AAATACGG,0.105
5,GATTAGCC,0.135
6,CAATGCCG,0.0717
7,ACCATTAA,0.225
8,ATTCCTTA,0.0773
9,AACCCAGA,-0.0567
10,AACTAATG,0.283
11,CCTGAGCG,0.053
12,TACGTCAA,-0.0712
13,CAGTACTC,-0.139
14,CACACATA,-0.0274
15,AACGGTGT,0.0593
16,GCAGTGAA,0.233
17,CTGTGCAA,0.0576
18,CCGTGACC,-0.128
19,GAACCCTC,-0.185
20,GGTTCCGA,-0.00577
21,CATAGTAC,-0.0936
22,GTACCCAC,0.00331
23,CTTGTAGA,-0.19
24,CGAACTAG,0.0316
25,CGTCTATC,0.0782

row,Sequence,PBM E-score
1,CAGTTTCA,-0.222
2,GTTTGCTA,0.0823
3,CCACTATC,-0.0188
4,GTAACATA,0.0159
5,CTTCCGCC,-0.18
6,ATCATTGA,0.0624
7,ATGAGAGC,0.0615
8,GTATGACA,0.0705
9,AGGCACGC,-0.0443
10,TTAACGAA,0.145
11,GAACTTAA,0.116
12,AGAACGTG,0.113
13,AATAACAT,0.194
14,CTTATTGC,-0.105
15,AAGTATGT,-0.076
16,CAGGCGCA,0.00914
17,AACTTCGA,0.0752
18,CTCAGATA,0.197
19,AATTTACT,0.0407
20,TAGGGTCA,-0.11
21,ACATCGAC,-0.012
22,AGCAGTGC,-0.0322
23,TAGGCGGA,0.112
24,TTGCGCAA,0.258
25,CAACCTTG,-0.0169

# 7 records picked at random from the list so far:
row,Sequence,PBM E-score
1,CAGTTTCA,-0.222
16,CAGGCGCA,0.00914
12,AGAACGTG,0.113
8,GTATGACA,0.0705
14,CTTATTGC,-0.105
11,GAACTTAA,0.116
10,TTAACGAA,0.145

# Carrying on:

row,Sequence,PBM E-score
1,CGGTGGGC,-0.102
2,CGCATTTA,0.177
3,CCCAGAGG,-0.372
4,ATCCCACC,0.0285
5,CCCGGACG,-0.307
6,ATCACCAA,0.109
7,AGACCGCC,-0.0452
8,ATATCCCG,0.112
9,AGGCGCAA,0.0947
10,TTCCGCAA,0.123
11,ATCCGAAG,0.079
12,AACTAGCA,0.0629
13,GTTGGTCA,0.241
14,ACATCCTG,0.23
15,AGTAATCG,0.179
16,AAACATCT,-0.101
17,GGTATCCA,0.135
18,GCGTTCCC,-0.0561
19,AGACTGCT,-0.028
20,AGATCTGC,0.187
21,ACTTGATC,0.119
22,GGACGTTA,0.0449
23,AGCATAAG,0.131
24,GTCCTACA,0.00675
25,AATCTGTA,0.107

row,Sequence,PBM E-score
1,ATCACATC,0.128
2,AACGGAGG,-0.189
3,AGACGTGC,0.0476
4,GCGTAAGA,0.0299
5,AGCCTGTA,-0.111
6,AACTCTGT,0.0597
7,CGCCTACC,-0.122
8,AAAATCCA,0.0338
9,GACTACCC,-0.0491
10,AATAGGCG,0.133
11,GCGAACTA,-0.0075
12,ACCATCAC,0.00191
13,GGGTACAA,-0.0485
14,CGGCAAAG,-0.00304
15,ACGTTTCA,0.105
16,CGACCGGC,0.133
17,AGCATTGC,0.173
18,ATCTTGGG,-0.0312
19,AACCTGGC,-0.0321
20,CGAGATGA,0.0735
21,CCCCTGGC,-0.366
22,CAGTGAAG,-0.104
